# Results from the M2OR odorant receptor database.
# Only a part is listed here, and it is no random draw. The calls were merged from several studies; some rest on single wells. This is one part of the list.
# How the values were obtained:
# Details in all cases: stereoisomer not certain
# [1] = molecular target: T1, OR5M11 (Homo sapiens) (UniProt Q96RB7)
# T1 sequence (whole entry): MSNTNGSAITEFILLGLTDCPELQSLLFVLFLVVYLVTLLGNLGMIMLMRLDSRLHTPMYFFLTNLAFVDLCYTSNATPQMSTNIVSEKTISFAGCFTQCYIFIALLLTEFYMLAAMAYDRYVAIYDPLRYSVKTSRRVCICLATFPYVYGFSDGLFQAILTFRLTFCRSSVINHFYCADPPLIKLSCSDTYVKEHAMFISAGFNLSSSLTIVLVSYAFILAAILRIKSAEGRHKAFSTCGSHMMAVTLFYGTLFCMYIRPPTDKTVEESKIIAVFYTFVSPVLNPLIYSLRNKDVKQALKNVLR
# Outline: (§1)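 Values were gathered from published papers (main text and supplementary material), with extra details requested from the original authors when needed, and checked for typos and inconsistencies. Each receptor–molecule pair is called responsive (active) if the original authors judged the measured signal statistically different from baseline, and non-responsive (inactive) otherwise. Assay methods varied by source, often transient mammalian cell-line luciferase assays. Recorded details include cell line, G-protein, co-transfected protein and tags.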
# [2] = system: T2, OR5M1
# T2 sequence (whole entry): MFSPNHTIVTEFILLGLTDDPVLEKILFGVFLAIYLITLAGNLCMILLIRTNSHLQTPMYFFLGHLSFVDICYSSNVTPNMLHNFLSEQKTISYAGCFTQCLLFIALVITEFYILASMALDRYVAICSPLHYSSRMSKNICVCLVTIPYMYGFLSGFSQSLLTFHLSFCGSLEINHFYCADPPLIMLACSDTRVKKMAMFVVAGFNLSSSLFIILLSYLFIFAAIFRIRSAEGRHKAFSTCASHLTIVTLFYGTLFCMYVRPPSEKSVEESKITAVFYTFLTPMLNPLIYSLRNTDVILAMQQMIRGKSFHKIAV
# Outline: as §1
# [3] = molecular target: T3, OR5M3 (Homo sapiens) (UniProt Q8NGP4)
# T3 sequence (whole entry): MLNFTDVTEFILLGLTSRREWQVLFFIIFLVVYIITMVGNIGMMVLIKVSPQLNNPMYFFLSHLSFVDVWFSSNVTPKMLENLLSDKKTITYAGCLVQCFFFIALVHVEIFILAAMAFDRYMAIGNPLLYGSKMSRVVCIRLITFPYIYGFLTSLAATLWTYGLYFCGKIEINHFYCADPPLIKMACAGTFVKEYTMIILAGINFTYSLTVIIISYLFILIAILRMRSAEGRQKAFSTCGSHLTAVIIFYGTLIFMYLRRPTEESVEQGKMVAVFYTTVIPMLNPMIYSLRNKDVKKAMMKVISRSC
# Outline: as §1
# [4] = molecular target: T4, OR5M8 (Homo sapiens) (UniProt Q8NGP6)
# T4 sequence (whole entry): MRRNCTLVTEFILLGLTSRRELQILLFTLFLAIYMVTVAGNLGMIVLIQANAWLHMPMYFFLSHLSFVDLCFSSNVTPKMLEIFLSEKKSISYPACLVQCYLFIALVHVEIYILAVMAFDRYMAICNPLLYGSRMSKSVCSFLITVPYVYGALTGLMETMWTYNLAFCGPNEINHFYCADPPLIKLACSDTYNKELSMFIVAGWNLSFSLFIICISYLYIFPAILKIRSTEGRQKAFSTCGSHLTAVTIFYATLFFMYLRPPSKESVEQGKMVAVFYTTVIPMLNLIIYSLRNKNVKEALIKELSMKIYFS
# Outline: as §1
# [5] = molecular target: T5, OR5M9 (Homo sapiens) (UniProt Q8NGP3)
# T5 sequence (whole entry): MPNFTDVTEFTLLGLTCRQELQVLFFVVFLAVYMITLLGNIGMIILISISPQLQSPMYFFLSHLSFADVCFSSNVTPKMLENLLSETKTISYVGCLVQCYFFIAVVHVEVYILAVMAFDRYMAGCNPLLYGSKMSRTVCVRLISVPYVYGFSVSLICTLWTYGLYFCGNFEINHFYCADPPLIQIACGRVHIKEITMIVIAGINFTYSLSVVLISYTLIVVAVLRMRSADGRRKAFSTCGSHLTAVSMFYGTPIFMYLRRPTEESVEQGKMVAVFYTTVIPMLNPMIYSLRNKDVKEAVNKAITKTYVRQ
# Outline: as §1
# [6] = system: T6, OR5MA
# T6 sequence (whole entry): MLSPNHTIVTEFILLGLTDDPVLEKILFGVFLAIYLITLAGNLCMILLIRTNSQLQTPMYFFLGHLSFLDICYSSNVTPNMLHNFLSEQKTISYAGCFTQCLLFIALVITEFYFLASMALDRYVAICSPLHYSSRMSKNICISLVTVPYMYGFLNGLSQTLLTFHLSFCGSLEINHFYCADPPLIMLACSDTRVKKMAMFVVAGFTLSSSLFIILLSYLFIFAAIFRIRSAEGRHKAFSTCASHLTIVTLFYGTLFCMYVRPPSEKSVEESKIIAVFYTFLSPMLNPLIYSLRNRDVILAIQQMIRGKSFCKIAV
# Outline: as §1
# [7] = molecular target: T7, OR5P2 (Homo sapiens) (UniProt Q8WZ92)
# T7 sequence (whole entry): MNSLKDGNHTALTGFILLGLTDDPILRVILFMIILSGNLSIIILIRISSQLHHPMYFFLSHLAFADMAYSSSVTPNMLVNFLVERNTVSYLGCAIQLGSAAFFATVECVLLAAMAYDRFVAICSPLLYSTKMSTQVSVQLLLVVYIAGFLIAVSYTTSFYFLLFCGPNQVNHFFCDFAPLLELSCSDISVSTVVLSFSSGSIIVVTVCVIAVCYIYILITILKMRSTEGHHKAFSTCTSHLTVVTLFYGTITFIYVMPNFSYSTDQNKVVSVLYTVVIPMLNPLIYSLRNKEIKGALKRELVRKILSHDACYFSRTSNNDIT
# Outline: as §1
# [8] = molecular target: T8, OR5P3 (Homo sapiens) (UniProt Q8WZ94)
# T8 sequence (whole entry): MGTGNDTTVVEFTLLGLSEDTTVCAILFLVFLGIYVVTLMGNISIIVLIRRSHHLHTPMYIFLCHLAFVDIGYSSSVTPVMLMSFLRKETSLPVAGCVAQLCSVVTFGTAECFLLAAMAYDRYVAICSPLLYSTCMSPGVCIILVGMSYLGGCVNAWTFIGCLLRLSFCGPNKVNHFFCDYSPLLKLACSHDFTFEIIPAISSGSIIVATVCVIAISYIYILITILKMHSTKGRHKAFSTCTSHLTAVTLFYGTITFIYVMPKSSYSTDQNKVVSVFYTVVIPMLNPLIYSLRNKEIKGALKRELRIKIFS
# Outline: as §1
# [9] = system: T9, OR5R1
# T9 sequence (whole entry): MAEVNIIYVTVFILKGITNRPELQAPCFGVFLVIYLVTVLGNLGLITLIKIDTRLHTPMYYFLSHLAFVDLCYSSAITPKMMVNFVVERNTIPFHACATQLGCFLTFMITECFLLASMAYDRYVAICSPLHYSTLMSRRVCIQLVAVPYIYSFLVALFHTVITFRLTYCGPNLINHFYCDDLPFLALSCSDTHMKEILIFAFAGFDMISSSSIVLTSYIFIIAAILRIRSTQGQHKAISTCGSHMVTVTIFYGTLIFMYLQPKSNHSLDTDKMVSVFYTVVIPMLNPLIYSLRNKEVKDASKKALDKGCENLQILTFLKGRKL
# Outline: as §1
# [10] = molecular target: T10, OR5T1 (Homo sapiens) (UniProt Q8NG75)
# T10 sequence (whole entry): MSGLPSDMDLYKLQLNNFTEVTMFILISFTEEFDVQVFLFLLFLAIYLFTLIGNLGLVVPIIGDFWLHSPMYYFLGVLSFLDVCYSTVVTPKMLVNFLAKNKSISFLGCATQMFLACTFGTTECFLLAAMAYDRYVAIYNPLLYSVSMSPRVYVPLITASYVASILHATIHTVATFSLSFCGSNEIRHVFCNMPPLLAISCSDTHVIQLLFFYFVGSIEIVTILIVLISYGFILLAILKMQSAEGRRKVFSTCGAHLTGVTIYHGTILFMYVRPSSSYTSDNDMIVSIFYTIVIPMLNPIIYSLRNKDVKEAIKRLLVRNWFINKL
# Outline: as §1
# [11] = system: T11, OR5T1
# T11 sequence (whole entry): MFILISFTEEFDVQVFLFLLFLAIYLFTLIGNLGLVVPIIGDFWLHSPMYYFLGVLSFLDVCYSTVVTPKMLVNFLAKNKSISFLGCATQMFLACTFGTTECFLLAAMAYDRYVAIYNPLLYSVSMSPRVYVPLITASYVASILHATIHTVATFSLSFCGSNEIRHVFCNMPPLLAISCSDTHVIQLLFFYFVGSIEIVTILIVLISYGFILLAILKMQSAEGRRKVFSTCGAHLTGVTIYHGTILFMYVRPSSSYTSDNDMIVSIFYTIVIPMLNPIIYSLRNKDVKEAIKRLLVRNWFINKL
# Outline: as §1
# [12] = system: T12, OR5T2
# T12 sequence (whole entry): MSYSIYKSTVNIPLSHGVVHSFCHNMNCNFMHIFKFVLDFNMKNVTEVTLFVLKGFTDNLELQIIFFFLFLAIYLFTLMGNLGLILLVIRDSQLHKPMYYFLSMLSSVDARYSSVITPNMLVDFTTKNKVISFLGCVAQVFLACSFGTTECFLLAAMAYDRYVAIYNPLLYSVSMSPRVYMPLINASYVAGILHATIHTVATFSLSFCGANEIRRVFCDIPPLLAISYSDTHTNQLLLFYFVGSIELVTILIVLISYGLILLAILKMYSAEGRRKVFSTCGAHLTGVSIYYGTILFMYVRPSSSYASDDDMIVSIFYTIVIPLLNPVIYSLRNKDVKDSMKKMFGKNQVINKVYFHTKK
# Outline: as §1
# [13] = system: T13, OR5T2; remark: listed apart in the source
# T13 sequence (whole entry): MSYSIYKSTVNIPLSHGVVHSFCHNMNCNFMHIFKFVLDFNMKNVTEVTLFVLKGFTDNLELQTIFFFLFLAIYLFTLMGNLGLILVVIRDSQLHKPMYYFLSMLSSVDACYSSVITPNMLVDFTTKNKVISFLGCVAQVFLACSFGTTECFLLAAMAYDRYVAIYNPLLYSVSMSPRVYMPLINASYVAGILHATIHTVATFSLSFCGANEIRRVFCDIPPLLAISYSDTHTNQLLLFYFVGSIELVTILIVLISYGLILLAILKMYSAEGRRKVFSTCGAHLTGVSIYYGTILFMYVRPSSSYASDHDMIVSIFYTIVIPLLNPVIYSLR
# Outline: as §1
# [14] = system: T14, OR5T3
# T14 sequence (whole entry): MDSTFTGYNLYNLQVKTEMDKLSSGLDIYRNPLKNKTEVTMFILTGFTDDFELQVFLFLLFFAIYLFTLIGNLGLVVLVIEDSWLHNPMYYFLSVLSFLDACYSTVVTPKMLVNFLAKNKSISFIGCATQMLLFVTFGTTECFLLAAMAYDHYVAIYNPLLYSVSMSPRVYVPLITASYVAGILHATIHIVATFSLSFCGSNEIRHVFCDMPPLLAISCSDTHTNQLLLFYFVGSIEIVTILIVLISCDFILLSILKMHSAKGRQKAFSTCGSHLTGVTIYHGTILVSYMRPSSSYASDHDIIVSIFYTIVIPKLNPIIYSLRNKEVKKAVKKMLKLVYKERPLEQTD
# Outline: as §1
# [15] = molecular target: T15, OR5V1 (Homo sapiens) (UniProt Q9UGF6)
# T15 sequence (whole entry): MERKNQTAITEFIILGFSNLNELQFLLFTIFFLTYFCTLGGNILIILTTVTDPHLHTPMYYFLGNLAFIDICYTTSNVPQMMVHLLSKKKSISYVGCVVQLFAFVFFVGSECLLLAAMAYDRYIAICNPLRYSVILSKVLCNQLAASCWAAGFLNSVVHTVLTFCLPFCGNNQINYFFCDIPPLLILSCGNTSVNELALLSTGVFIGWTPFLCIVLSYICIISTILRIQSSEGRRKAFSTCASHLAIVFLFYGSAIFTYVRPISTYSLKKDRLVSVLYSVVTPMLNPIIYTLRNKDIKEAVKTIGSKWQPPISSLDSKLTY
# Outline: as §1
# [16] = system: T16, OR5W2
# T16 sequence (whole entry): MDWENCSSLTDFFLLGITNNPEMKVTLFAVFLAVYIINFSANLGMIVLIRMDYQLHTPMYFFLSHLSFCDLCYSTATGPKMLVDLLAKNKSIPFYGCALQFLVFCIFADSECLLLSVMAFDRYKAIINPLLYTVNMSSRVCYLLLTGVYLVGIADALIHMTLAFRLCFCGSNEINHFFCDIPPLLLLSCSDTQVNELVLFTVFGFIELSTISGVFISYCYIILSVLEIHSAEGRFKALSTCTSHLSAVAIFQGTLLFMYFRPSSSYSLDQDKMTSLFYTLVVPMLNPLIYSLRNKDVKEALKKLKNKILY
# Outline: as §1
# [17] = molecular target: T17, OR6A2 (Homo sapiens) (UniProt O95222)
# T17 sequence (whole entry): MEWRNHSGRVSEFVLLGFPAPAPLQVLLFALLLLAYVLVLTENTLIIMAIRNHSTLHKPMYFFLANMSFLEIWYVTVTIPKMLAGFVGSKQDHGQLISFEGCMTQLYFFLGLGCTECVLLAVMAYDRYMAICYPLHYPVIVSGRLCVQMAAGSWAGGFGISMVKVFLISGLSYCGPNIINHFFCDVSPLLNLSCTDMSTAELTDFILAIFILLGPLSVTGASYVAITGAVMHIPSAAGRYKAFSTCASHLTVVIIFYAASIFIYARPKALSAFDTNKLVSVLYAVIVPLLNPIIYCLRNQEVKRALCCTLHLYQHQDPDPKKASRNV
# Outline: as §1
Compound,odorant receptor agonist call [1],odorant receptor agonist call [2],odorant receptor agonist call [3],odorant receptor agonist call [4],odorant receptor agonist call [5],odorant receptor agonist call [6],odorant receptor agonist call [7],odorant receptor agonist call [8],odorant receptor agonist call [9],odorant receptor agonist call [10],odorant receptor agonist call [11],odorant receptor agonist call [12],odorant receptor agonist call [13],odorant receptor agonist call [14],odorant receptor agonist call [15],odorant receptor agonist call [16],odorant receptor agonist call [17]
CC=Cc1ccc(O)c(OC)c1,active,active,inactive,inactive,active,active,active,inactive,inactive,inactive,inactive,inactive,inactive,inactive,inactive,inactive,active
CCC=CCCO,inactive,inactive,inactive,inactive,inactive,inactive,inactive,inactive,inactive,inactive,inactive,inactive,inactive,inactive,inactive,inactive,inactive
CC(C)C(=O)O,inactive,inactive,inactive,inactive,inactive,inactive,inactive,inactive,inactive,inactive,inactive,inactive,inactive,inactive,inactive,inactive,inactive
COc1ccccc1O,inactive,inactive,inactive,inactive,inactive,inactive,inactive,inactive,inactive,inactive,inactive,inactive,inactive,inactive,inactive,inactive,inactive
